This is one part of the list. Shown are side measurements of this screen, not its main read-out; they come without a call. Compounds called inactive in the main read-out are mostly missing here. Potencies come from curve fits of mixed quality, noted in brackets.
Assay: qHTS Assay to Find Inhibitors of Chronic Active B-Cell Receptor Signaling
Settings: ABC-DLBCL IkBa-CBG/CBR reporter, luminescence ratio (green luciferase fused to IkBa over red control in TMD8 lymphoma cells), 4 h
How it was run: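 Compounds up to 46 uM were incubated four hours with TMD8 cells whose green CBG68 luciferase is fused to IkappaBalpha; red CBR luminescence normalised the signal, and concentration-effect curves were fitted to fusion, red and ratio data.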

[1] = measured here: CBR red luminescence, cell number
[2] = measured here: IkBa-CBG green luminescence

For `Cc1ccccc1NC(=O)c1nc(S(C)(=O)=O)ncc1Cl`, the AC50 [1] was 20 µM [falling, single point] and the AC50 [2] was 11.2 µM [rising, partial curve, poor fit].

In the case of `O=c1nc(C(F)(F)F)nc2ccccn12`, the AC50 [1] is reported as 29.1 µM [falling, single point].

With `COc1ccc(S(=O)(=O)N(Cc2cc3cc(C)ccc3[nH]c2=O)CC2CCCO2)cc1` (centres undefined) the AC50 [1] was 1.64 µM [rising, partial curve, poor fit].

In the case of `Cc1cccc(/C(N)=N/OC(=O)N2CCOCC2)c1`, the AC50 [2] is reported as 25.1 µM [falling, partial curve, poor fit].

For `CC(C)c1ccccc1NC(=O)COC(=O)CCN1C(=O)/C(=C\C=C\c2ccccc2)SC1=S`, the AC50 [1] was 0.0651 µM [falling, full curve].

In the case of `CC(=O)c1c(C)nc2ccc(Cl)cn12`, the AC50 [1] is reported as 3.26 µM [falling, single point].

For `O=C(COc1ccc2c3c(c(=O)oc2c1)CCC3)NCc1ccccn1`, the AC50 [1] was 35.5 µM [rising, single point].

With `COc1cccc(NC(=O)C2CCC(CNS(=O)(=O)c3ccc4c(c3)CC(C)N4C(C)=O)CC2)c1` (centres undefined) the AC50 [1] was 35.5 µM [falling, partial curve, poor fit].

With `Cc1cc(C)n2nc(CNS(=O)(=O)c3c(F)c(F)c(F)c(F)c3F)nc2n1` the AC50 [1] was 35.5 µM [falling, single point].

With `O=C(Cc1ccccc1)c1c[nH]c(C(=O)O)c1` the AC50 [1] was 10 µM [falling, partial curve, poor fit].

With `COc1cc(OC)cc(-c2c(C#Cc3ccsc3)c3cc(Br)ccc3n2C)c1` the AC50 [1] was 4.11 µM [falling, full curve].

In the case of `Cc1nc(SC2CC(=O)N(c3ccccc3)C2=O)n[nH]1` (centres undefined), the AC50 [1] is reported as 15.8 µM [falling, single point].

In the case of `Cc1cccc([N+](=O)[O-])c1NC(=O)CSc1nnc2ccccn12`, the AC50 [1] is reported as 6.51 µM [falling, partial curve, poor fit].

For `Cn1c(CCN2CCN(c3ccccn3)CC2)nc2cc(NC(=O)COc3ccccc3)ccc21`, the AC50 [1] was 11.2 µM [falling, single point].

For `O=C(O)c1ccc(N2C(=O)Nc3ccccc3N2O)cc1`, the AC50 [1] was 35.5 µM [falling, single point].

In the case of `O=C(Nc1ccccc1N1CCN(c2ccc(F)cc2)CC1)c1ccccc1`, the AC50 [1] is reported as 1.3 µM [rising, full curve].

In the case of `COc1ccc(OCCn2cnc(Cl)c2Cl)cc1`, the AC50 [1] is reported as 14.1 µM [rising, partial curve, poor fit].

For `CS(=O)(=O)c1ccc2nc(NC(=O)c3cccc(Cl)c3)sc2c1`, the AC50 [1] was 2.82 µM [falling, partial curve].

In the case of `Nc1cc(N)nc(SCCc2ccccc2)n1`, the AC50 [1] is reported as 35.5 µM [falling, single point].

With `O=C1C(Cc2ccccc2)NC(=S)N1c1ccccc1` (centres undefined) the AC50 [1] was 31.6 µM [falling, single point].

In the case of `COc1ccc(-c2noc(Cc3ccc(Cl)cc3)n2)cc1OC`, the AC50 [1] is reported as 29.1 µM [rising, single point].

With `CC1(C)N=c2ccc([N+](=O)[O-])c(N)c2=[N+]1[O-]` the AC50 [1] was 11.2 µM [rising, partial curve] and the AC50 [2] was 35.5 µM [falling, partial curve, poor fit].

For `CC(=O)N1CCc2c(sc(NC(=O)C3CCN(S(=O)(=O)c4cccs4)CC3)c2C(N)=O)C1`, the AC50 [1] was 14.6 µM [rising, partial curve, poor fit] and the AC50 [2] was 23.1 µM [falling, partial curve, poor fit].

For `Cc1nc([N+](=O)[O-])c(Br)n1Cc1ccc(Cl)c(Cl)c1`, the AC50 [1] was 22.4 µM [falling, single point] and the AC50 [2] was 3.55 µM [rising, partial curve, poor fit].

For `Cc1ccccc1-c1nc(-c2ccc(Br)o2)no1`, the AC50 [1] was 3.16 µM [rising, single point].

In the case of `Cc1ccc(NC(=O)c2cc([N+](=O)[O-])ccc2N2CCOCC2)cc1C`, the AC50 [1] is reported as 15.8 µM [falling, single point].

With `Cc1cnnn1-c1ccc([N+](=O)[O-])cc1` the AC50 [1] was 17.8 µM [rising, partial curve, poor fit].

With `O=C(CN1CCN(CC(=O)Nc2ccccc2F)CC1)Nc1ccc2c(c1)OCCO2` the AC50 [1] was 17.8 µM [falling, single point].

For `CN(CC(=O)Nc1nc2ccccc2s1)S(=O)(=O)c1ccccc1`, the AC50 [1] was 5.17 µM [falling, full curve].

For `COc1cc(C2C(C#N)=C(N)OC3=C2C(=O)CCC3)ccc1OC(=O)N1CCOCC1` (centres undefined), the AC50 [1] was 7.31 µM [rising, partial curve, poor fit].

With `O=S(=O)(NC1CCCCC1N1CCN(c2cccc(Cl)c2)CC1)c1ccccc1` (centres undefined) the AC50 [1] was 0.631 µM [falling, partial curve, poor fit].

In the case of `Cn1cc([N+](=O)[O-])c(C(=O)Nc2cc(Oc3ccccc3)cc([N+](=O)[O-])c2)n1`, the AC50 [1] is reported as 5.17 µM [falling, full curve].

In the case of `COC(=O)c1sccc1NC(=O)Nc1cccc(C(C)=O)c1`, the AC50 [1] is reported as 35.5 µM [falling, single point].

For `Cc1ccc(S(=O)(=O)N(CC(=O)NCC2CCCO2)C2CCCCC2)cc1` (centres undefined), the AC50 [1] was 2.82 µM [rising, full curve, poor fit].

With `N#Cc1c(N)nc2c(c1-c1ccc(F)cc1)CCC2` the AC50 [1] was 35.5 µM [falling, single point] and the AC50 [2] was 3.55 µM [rising, full curve, poor fit].

In the case of `O=C1OC(c2ccccc2)=C/C1=C/c1cccs1`, the AC50 [1] is reported as 20 µM [falling, single point].

In the case of `CCOC(=O)C1(CC2CC2)CCN(C(=O)c2cc(OC)nc3ccccc23)CC1`, the AC50 [1] is reported as 2 µM [rising, partial curve].

For `Cc1ccc(-c2sc(-c3ccccc3)nc2CC(=O)Nc2ccccc2F)cc1`, the AC50 [1] was 0.0103 µM [rising, full curve, poor fit].

In the case of `COc1ccc(C(=O)OCC(=O)c2ccc(S(=O)(=O)N3CCCCC3)cc2)c(OC)c1`, the AC50 [1] is reported as 0.731 µM [rising, full curve, poor fit].
